Results from cells or extracts need not show a direct contact. For some of these results: Negatives hold for the conditions tested. For some of these results: Tags and fusion partners may be left off the protein sequences shown. For some of these results: The exact form of at least one protein or probe is not confirmed.
Assays:
[1] = target: germ cell alkaline phosphatase GCAP (ALPPL2) expressed alone (Homo sapiens) (UniProt P10696); experiment: flow cytometry; details: protein on the cell surface; protein details: pcDNA3.1(-) vector, transfected PC-3; label: 5'-FAM or 5'-biotin; single-stranded DNA
[2] = target: T1, intestinal alkaline phosphatase IAP (ALPI) expressed alone (Homo sapiens) (UniProt P09923); experiment: flow cytometry; details: protein on the cell surface; protein details: pCMV-myc vector, transfected PC-3; label: 5'-FAM or 5'-biotin; single-stranded DNA
T1 sequence (looked up, limits assumed): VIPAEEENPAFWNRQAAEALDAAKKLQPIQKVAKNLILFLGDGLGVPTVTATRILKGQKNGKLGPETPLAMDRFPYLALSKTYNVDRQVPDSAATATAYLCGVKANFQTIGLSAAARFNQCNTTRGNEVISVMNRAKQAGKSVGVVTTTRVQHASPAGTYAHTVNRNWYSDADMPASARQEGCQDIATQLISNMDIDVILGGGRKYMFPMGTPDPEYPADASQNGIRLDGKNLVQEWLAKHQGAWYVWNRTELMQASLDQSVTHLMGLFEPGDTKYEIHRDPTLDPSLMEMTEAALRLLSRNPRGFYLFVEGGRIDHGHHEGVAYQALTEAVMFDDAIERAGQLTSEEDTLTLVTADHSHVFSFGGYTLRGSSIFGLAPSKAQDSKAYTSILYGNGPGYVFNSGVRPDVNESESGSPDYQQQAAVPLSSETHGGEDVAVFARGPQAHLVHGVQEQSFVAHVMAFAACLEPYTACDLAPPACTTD

Chains of the proteins cited; added tags and fusions are not shown. Chains listed by the source or under a name are the forms on record and can include a tag or linker. Residues count along the entry.
UniProt P10696, 20-503: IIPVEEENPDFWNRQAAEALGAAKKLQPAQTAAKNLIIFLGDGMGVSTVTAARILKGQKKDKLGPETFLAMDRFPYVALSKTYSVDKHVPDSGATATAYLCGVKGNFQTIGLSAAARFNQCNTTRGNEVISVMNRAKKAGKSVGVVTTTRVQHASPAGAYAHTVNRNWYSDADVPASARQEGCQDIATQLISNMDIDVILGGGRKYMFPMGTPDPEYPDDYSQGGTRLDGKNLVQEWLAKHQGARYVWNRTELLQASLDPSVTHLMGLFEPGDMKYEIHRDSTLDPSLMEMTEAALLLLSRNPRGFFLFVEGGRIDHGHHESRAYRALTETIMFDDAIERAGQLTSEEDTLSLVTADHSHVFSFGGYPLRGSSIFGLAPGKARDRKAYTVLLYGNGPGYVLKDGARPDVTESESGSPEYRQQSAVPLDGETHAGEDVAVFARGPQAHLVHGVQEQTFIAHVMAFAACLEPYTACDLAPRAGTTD
UniProt P05187, 23-506: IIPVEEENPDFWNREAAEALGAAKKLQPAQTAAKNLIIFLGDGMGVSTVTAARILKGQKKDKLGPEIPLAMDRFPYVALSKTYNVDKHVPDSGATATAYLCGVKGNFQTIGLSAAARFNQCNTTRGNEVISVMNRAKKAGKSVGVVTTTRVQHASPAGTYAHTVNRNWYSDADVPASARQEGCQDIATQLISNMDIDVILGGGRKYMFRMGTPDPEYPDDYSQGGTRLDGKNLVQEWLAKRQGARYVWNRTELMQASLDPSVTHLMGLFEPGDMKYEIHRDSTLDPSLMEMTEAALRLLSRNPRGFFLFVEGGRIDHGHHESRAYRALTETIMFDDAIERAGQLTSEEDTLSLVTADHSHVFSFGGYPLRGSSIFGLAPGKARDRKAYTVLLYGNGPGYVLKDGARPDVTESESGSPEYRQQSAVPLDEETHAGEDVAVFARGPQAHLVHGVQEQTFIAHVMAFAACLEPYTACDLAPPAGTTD
alkaline phosphatase heterodimer IAP/PALP co-expressed in PC-3 cells (Homo sapiens), one chain, as listed by the source: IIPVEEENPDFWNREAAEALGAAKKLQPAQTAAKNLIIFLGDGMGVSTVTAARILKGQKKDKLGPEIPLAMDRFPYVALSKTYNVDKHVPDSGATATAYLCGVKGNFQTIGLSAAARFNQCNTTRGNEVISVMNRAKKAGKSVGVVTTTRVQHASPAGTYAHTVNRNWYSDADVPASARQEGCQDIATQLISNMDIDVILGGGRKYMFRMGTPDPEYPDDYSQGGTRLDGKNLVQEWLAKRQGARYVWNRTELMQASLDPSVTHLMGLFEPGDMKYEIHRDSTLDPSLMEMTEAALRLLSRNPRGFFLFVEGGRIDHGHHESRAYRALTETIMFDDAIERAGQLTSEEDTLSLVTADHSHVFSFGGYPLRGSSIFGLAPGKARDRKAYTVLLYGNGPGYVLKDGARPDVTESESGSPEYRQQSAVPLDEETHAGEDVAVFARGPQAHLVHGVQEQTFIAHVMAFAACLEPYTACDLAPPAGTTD
alkaline phosphatase heterodimer IAP/GCAP co-expressed in PC-3 cells (Homo sapiens), one chain, as listed by the source: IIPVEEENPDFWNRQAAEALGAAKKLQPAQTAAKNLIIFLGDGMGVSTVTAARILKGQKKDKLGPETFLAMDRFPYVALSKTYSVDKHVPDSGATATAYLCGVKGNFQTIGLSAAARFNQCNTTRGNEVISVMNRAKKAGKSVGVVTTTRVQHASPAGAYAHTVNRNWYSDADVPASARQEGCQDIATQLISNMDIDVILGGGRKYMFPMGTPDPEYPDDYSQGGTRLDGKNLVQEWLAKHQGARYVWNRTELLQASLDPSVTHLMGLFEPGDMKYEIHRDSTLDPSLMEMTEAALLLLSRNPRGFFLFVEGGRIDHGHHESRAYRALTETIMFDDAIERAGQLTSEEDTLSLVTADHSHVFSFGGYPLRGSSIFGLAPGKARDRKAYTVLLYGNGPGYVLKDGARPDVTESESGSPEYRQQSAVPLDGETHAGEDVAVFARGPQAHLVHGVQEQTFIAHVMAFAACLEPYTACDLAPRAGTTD

[3] = tested on: alkaline phosphatase heterodimer IAP/GCAP co-expressed in PC-3 cells (Homo sapiens); experiment: flow cytometry; details: protein on the cell surface; label: 5'-FAM or 5'-biotin; single-stranded DNA
[4] = tested on: alkaline phosphatase heterodimer IAP/PALP co-expressed in PC-3 cells (Homo sapiens); experiment: flow cytometry; details: protein on the cell surface; protein details: pCMV-myc vectors, transfected PC-3; label: 5'-FAM or 5'-biotin; single-stranded DNA
[5] = target: placental alkaline phosphatase PALP (ALPP) expressed alone (Homo sapiens) (UniProt P05187); experiment: flow cytometry; details: protein on the cell surface; protein details: pCMV-myc vector, transfected PC-3; label: 5'-FAM or 5'-biotin; single-stranded DNA
[6] = tested on: soluble alkaline phosphatase heterodimer in LoVo culture medium (Homo sapiens); experiment: pull-down; details: 10 nM BG2-Bio, 4 C, phosphatase activity readout, protein in an extract, protein details: endogenous, secreted, label: 5'-FAM or 5'-biotin, single-stranded DNA
[7] = tested on: alkaline phosphatase heterodimer IAP/PALP (ALPI/ALPP) on LoVo cells (Homo sapiens); experiment: competition with a labelled probe; details: 4 uM competitor vs 100 nM BG2-FAM on LoVo cells, on ice; protein on the cell surface; protein details: endogenous, LoVo colon cancer cells; single-stranded DNA; variant of BG2

Sequence: CAAGGAATAGGGGTCGGTGTGGGTGGTTATGATTGGCTTCCTTG [BG2]
- binding result [1]: no binding
- binding result [2]: no binding
- binding result [3]: binds
- binding result [4]: binds
- binding result [5]: no binding
- binding result [6]: binds

Sequence: TAGGGGTCGGTGTGGGTGGTTATGATTGGC [BG2 loop region sequence 7]
- binding result [7]: binds

Source: patent US20200362349
